Measured values published in the supplement of paper PMC12889115.
The other results are listed elsewhere or left out. These are raw signals, not scaled to a control.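 First-pass screen: polymyxin B was added at a level that permeabilizes the Salmonella outer membrane while sparing the inner membrane. DMSO wells, with and without polymyxin B, defined maximum growth. Because plates differed from one another, each plate's data were ranked separately and the compounds with the lowest OD600 were carried forward as hits.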

Tested on: Salmonella enterica serovar Typhimurium SL1344
Assay: bacterial growth OD600 after 18 h with compound and polymyxin B; higher = more bacterial growth (less inhibition)
Settings: 50 µM, Mueller-Hinton broth

Row | Compound | bacterial growth OD600 (polymyxin B 1 µg/mL) | bacterial growth OD600 (polymyxin B 0.75 µg/mL)
1 | COc1ccc(OC)c(CN2CCN(Cc3ccc(F)c(F)c3)C(CCO)C2)c1 (stereo not given) | 0.832 | 
2 | COc1ccc(CN2CCCCCCC2)cc1OCC(O)CN1CCN(C)CC1 (stereo not given) |  | 0.879
3 | COc1cccc(Cc2cc(C(=O)NCCC(c3ccccc3)c3ccco3)on2)c1 (stereo not given) |  | 0.844
4 | CCOC(=O)C1(CCOc2ccccc2)CCCN(Cc2cccc(O)c2)C1 (stereo not given) |  | 0.763
5 | CN1N=C(C(=O)N(C)C2CCCN(Cc3ccccc3F)C2)CCC1=O (stereo not given) | 0.908 | 
6 | CCn1ccnc1CN1CCC(n2nccc2NC(=O)C(OC)c2ccccc2)CC1 (stereo not given) | 0.939 | 
7 | CC(C)c1ccc(CN2CCCC3(CCN(c4ncccn4)C3)C2=O)cc1 (stereo not given) | 0.703 | 
8 | CC(C)CC(=O)C(=O)N1CCC(C2(c3ccccn3)NC(=O)N(CCc3cccs3)C2=O)CC1 (stereo not given) |  | 0.819
9 | CO[C@H]1[C@H](NC(=O)C(C)C)c2ccccc2C12CCN(C(=O)C[C@@H]1C[C@@H](C)NC(=S)N1)CC2 |  | 0.834
10 | COC(C(=O)N1CCC(C(Cc2ccccc2)N(C)C(=O)c2ccccn2)CC1)c1ccccc1 (stereo not given) |  | 0.859
11 | O=C(NCc1ccco1)C1CC12CCN(Cc1cnc(-c3ccccc3)s1)CC2 (stereo not given) |  | 1.03
12 | CCOC(=O)N1CCN(Cc2nc(-c3ccc(OC)cc3OC)oc2C)CC1 |  | 0.976
13 | CC(C)c1nc(CNC(=O)c2cc(Cn3ccnc3C(C)C)[nH]n2)cs1 | 0.92 | 
14 | CCn1ccnc1CN1CCC2(CCCN(Cc3cccc(C)c3)C2=O)C1 (stereo not given) | 0.899 | 
15 | COCC1CCCN(C(=O)CCC2(Cc3ccc(OC)c4ccccc34)CCC(=O)N2)C1 (stereo not given) |  | 0.839
16 | COc1cc(CNCc2cccnc2N(C)C2CCCCC2)ccc1F | 0.904 | 
17 | COc1cc(F)ccc1CN1CCC(n2nccc2NC(=O)C(C)(C)C)CC1 |  | 0.846
18 | Cc1nc(N2CCCC(NCc3ccc(F)cc3F)CC2)nc2ccc(F)cc12 (stereo not given) |  | 0.691
19 | COc1cccc(C(=O)N2CCC3(CC2)c2ccccc2[C@@H](NC(=O)c2ccccn2)[C@@H]3OC)c1 |  | 0.729
20 | CCOc1ccc2nc(N3CCCN(Cc4cc(OC)c(OC)cc4OC)CC3)nc(C)c2c1 |  | 0.902
21 | COc1ccc(C2(CC(=O)N3CCN(c4ccccc4)C(=O)C3)CC(=O)N(CCC(C)C)C2=O)cc1 (stereo not given) |  | 0.824
22 | O=C(CCN1CCCCO1)NC1CCCN(Cc2ccccc2F)C1 (stereo not given) | 0.905 | 
23 | COc1ccc(F)c(CN2CCCC3(CCN(C(=O)c4cccc(C)n4)C3)C2)c1 (stereo not given) | 0.912 | 
24 | CCCc1ncc(CN(C)C2CCCN(CCCc3ccccc3)C2)cn1 (stereo not given) | 0.993 | 
25 | NC(=O)C1CCN(c2ccc(-c3nc(CCc4ccccc4)no3)cn2)CC1 | 0.793 | 
26 | CC(=O)NCC(=O)N(C)C1CCCN(Cc2ccccc2F)C1 (stereo not given) | 0.953 | 
27 | c1ccc2c(c1)CC(NC1CSCCSC1)CO2 (stereo not given) | 0.933 | 
28 | O=C(Nc1cccc(-c2ccc(F)cc2)c1)C1CCCN(C(=O)CC(F)(F)F)C1 (stereo not given) | 0.461 | 
29 | COCC(C)NC(=O)c1csc2nc(-c3cccc(C(F)(F)F)c3)cn12 (stereo not given) | 1.11 | 
30 | Cc1nc[nH]c1CNC1CC(=O)N(CCc2cccc(Cl)c2)C1 (stereo not given) | 0.834 | 

Molecules shown so far that contain a furan ring, fused or not:
Row | Compound | bacterial growth OD600 (polymyxin B 1 µg/mL) | bacterial growth OD600 (polymyxin B 0.75 µg/mL)
3 | COc1cccc(Cc2cc(C(=O)NCCC(c3ccccc3)c3ccco3)on2)c1 (stereo not given) |  | 0.844
11 | O=C(NCc1ccco1)C1CC12CCN(Cc1cnc(-c3ccccc3)s1)CC2 (stereo not given) |  | 1.03
